According to PubChem BioAssay AID493014 (National Center for Advancing Translational Sciences (NCATS), 2011):
This is one part of the list. These are further read-outs of the screen, such as a control signal, another cell line or another target. No call is given for them. Compounds called inactive in the main read-out are mostly missing here. Words in brackets tell the shape of the fitted curve; partial curves, single points and poor fits give uncertain potencies.

Experiment: qHTS Assay to Find Inhibitors of Chronic Active B-Cell Receptor Signaling
Settings: ABC-DLBCL IkBa-CBG/CBR reporter, luminescence ratio (green luciferase fused to IkBa over red control in TMD8 lymphoma cells), 4 h
Summary of the method: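 Cell line TMD8 (human ABC DLBCL), stably expressing tet-inducible CBG68-IkBa fusion and CBR; IMDM/0.5% FBS; cpd up to 46 uM; dox induction, 4 h, 37C/5% CO2; dual luminescence; green/red ratio; MG132 control.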

[1] = measured here: CBR red luminescence, cell number
[2] = measured here: IkBa-CBG green luminescence

| Structure (SMILES) | AC50 [1] | AC50 [2] |
| --- | --- | --- |
| O=C(COC(=O)c1cccnc1Cl)Nc1ccc(N2CCCCC2)cc1 | 0.164 µM [rising, full curve, poor fit] |  |
| O=S(=O)(Nc1ccc(-c2ccc(N3CCOCC3)nn2)cc1)c1cc(Cl)ccc1Cl |  | 16.4 µM [rising, partial curve, poor fit] |
| CC(=NNC(=O)CSc1nc2ccccc2o1)c1ccco1 | 5.8 µM [falling, partial curve, poor fit] |  |
| Cn1cccc1C(=O)Nc1ccc(N2CCOCC2)cc1 | 7.31 µM [falling, partial curve] |  |
| COc1cc(NC(=O)c2ccccc2)cc(OC)c1 | 4.47 µM [falling, full curve, poor fit] |  |
| CCOC(=O)N1CCN(C(=O)CN(c2ccccc2OC)S(=O)(=O)c2ccc(OC)cc2)CC1 | 7.94 µM [falling, partial curve, poor fit] |  |
| Clc1cccc(Oc2cnc3ccccc3n2)c1 | 15.8 µM [rising, single point] |  |
| COc1ccccc1NC(=O)N(CCN1CCOCC1)Cc1cc2cc(C)cc(C)c2[nH]c1=O | 22.4 µM [rising, partial curve, poor fit] |  |
| Cc1ccc(N2C(N)=C(C#N)C(c3cccnc3)C3=C2CC(C)(C)CC3=O)cc1 (stereo unspecified) | 0.92 µM [rising, partial curve, poor fit] |  |
| C/C(=N\NS(=O)(=O)c1ccc(Br)cc1)c1ccc2c(c1)OCO2 | 12.6 µM [falling, single point] |  |
| Cc1ccc(S(=O)(=O)N(C)C)cc1NC(=O)COC(=O)c1ccc2ccccc2n1 | 16.4 µM [rising, partial curve, poor fit] |  |
| COc1cc([N+](=O)[O-])ccc1NC(=O)COC(=O)c1ccc(NC(N)=O)cc1 | 35.5 µM [falling, single point] |  |
| O=C(O)C1SCCN1S(=O)(=O)c1ccc(N=NN2CCOCC2)cc1 (stereo unspecified) | 3.16 µM [rising, single point] |  |
| COc1ccc(NC(=O)C(Cl)=C(Cl)Cl)cn1 | 2.82 µM [falling, partial curve] |  |
| Cc1ccc(NC(=O)Cn2cnc3c(NCc4ccccc4)ncnc32)cc1C | 25.9 µM [rising, single point] |  |
| CC1CCN(C(=O)CSc2nc3cccnc3n2C)CC1 | 2.82 µM [falling, full curve, poor fit] |  |
| CCN1CCN(C(c2cc(OC)ccc2OC)c2nnnn2Cc2ccccc2)CC1 (stereo unspecified) | 12.6 µM [falling, partial curve, poor fit] |  |
| CC(=O)Nc1cccc(NC(=O)c2cccc(-c3ccc(O)cc3)c2)c1 | 0.708 µM [falling, full curve, poor fit] |  |
| COc1ccc(-c2nsc(SCC(=O)Nc3ccc4c(c3)OCO4)n2)cc1 | 23.1 µM [falling, single point] |  |
| COc1ccc(/C=N/n2c(COc3ccccc3)n[nH]c2=S)cc1OC | 6.31 µM [rising, full curve, poor fit] |  |
| Cc1ccc(CNc2ccc(N3C(=O)CCCC3=O)cc2[N+](=O)[O-])cc1 | 8.2 µM [rising, partial curve, poor fit] |  |

| Structure (SMILES) | AC50 [1] | AC50 [2] |
| --- | --- | --- |
| COc1ccc(C(=O)OCC(N)=O)cc1[N+](=O)[O-] | 9.2 µM [rising, partial curve, poor fit] |  |
| CC(C)(C)OC(=O)NCCCCCNC(=O)c1nc[nH]c1C(=O)NCc1ccc(CNC(=O)OC(C)(C)C)cc1 | 29.1 µM [falling, single point] |  |
| CC(=O)NC1(C(F)(F)F)C(=O)Nc2c1c(=O)[nH]c(=O)n2-c1ccccc1 (stereo unspecified) | 25.1 µM [rising, partial curve, poor fit] |  |
| CC(=O)Oc1ccc2c(=O)oc(-c3ccccc3C)nc2c1 | 12.6 µM [falling, partial curve, poor fit] |  |
| CCOc1cc2c3c(c1)C1(C(=O)N3C(C)(C)C=C2C)C(C#N)=C(N)Oc2cc(O)ccc21 (stereo unspecified) | 35.5 µM [falling, partial curve, poor fit] |  |
| CCN1C(=O)c2cccc3c(S(=O)(=O)NCC4CCCO4)ccc1c23 (stereo unspecified) | 11.2 µM [rising, single point] |  |
| Cc1ccc(S(=O)(=O)CCC(=O)c2cccc([N+](=O)[O-])c2)cc1 | 11.2 µM [falling, partial curve] | 6.31 µM [falling, single point] |
| CCCn1c(=NC(=O)CS(=O)(=O)c2ccccc2)sc2cc(S(C)(=O)=O)ccc21 | 32.6 µM [falling, single point] |  |
| COc1ccc2cc(CN(CC3CCCO3)C(=S)Nc3ccccc3)c(=O)[nH]c2c1 (stereo unspecified) | 10 µM [falling, partial curve, poor fit] | 11.2 µM [rising, single point] |
| CC(=O)NNC(=O)c1[nH]c2ccc(Br)cc2c1-c1ccccc1 | 35.5 µM [falling, single point] |  |
| CC(C)c1ccc(C(=O)NCCCN(C)C)cc1 | 4.11 µM [rising, partial curve, poor fit] |  |
| COc1ccc(NC(=O)CCC(=O)OCc2ccc(Br)cc2)cc1 | 2.91 µM [rising, full curve] |  |
| N#Cc1c2c(c(-c3ccccc3)[nH]c1=O)CCCC2 | 31.6 µM [rising, single point] |  |
| CS/C(N)=N/N=C/c1cc(Br)cc(Br)c1O |  | 2.24 µM [falling, partial curve, poor fit] |
| COc1cc(-c2noc(CCC(N)=O)n2)cc(OC)c1OC | 35.5 µM [rising, partial curve, poor fit] |  |
| Cc1ccc(C(=O)O/N=C(\N)c2cccc([N+](=O)[O-])c2)cc1 | 5.62 µM [falling, single point] |  |
| COc1ccccc1/C=C/C=N/NC(=O)c1ccncc1 | 23.1 µM [falling, partial curve] |  |
| COc1ccccc1N1CCN(C2CCCN(C(=O)c3snnc3C)C2)CC1 (stereo unspecified) | 8.91 µM [rising, partial curve, poor fit] |  |
| Nc1c(-c2cccc([N+](=O)[O-])c2)nc2ccccn12 | 9.2 µM [rising, partial curve, poor fit] |  |
| N#CC1=C(N)C(C#N)(C#N)[C@H](c2cccnc2)[C@H]2CN(C(=O)OCc3ccccc3)CC=C12 | 29.1 µM [falling, single point] | 20.6 µM [falling, partial curve] |
| O=c1oc2ccccc2c(O)c1/C=C1\C=Nc2ccccc21 | 1.12 µM [falling, full curve] |  |

Part of the list above in order of length of the SMILES, descending.

| Structure (SMILES) | AC50 [1] | AC50 [2] |
| --- | --- | --- |
| CC(C)(C)OC(=O)NCCCCCNC(=O)c1nc[nH]c1C(=O)NCc1ccc(CNC(=O)OC(C)(C)C)cc1 | 29.1 µM [falling, single point] |  |
| N#CC1=C(N)C(C#N)(C#N)[C@H](c2cccnc2)[C@H]2CN(C(=O)OCc3ccccc3)CC=C12 | 29.1 µM [falling, single point] | 20.6 µM [falling, partial curve] |
| CCOc1cc2c3c(c1)C1(C(=O)N3C(C)(C)C=C2C)C(C#N)=C(N)Oc2cc(O)ccc21 (stereo unspecified) | 35.5 µM [falling, partial curve, poor fit] |  |
| CCCn1c(=NC(=O)CS(=O)(=O)c2ccccc2)sc2cc(S(C)(=O)=O)ccc21 | 32.6 µM [falling, single point] |  |
| CC(=O)NC1(C(F)(F)F)C(=O)Nc2c1c(=O)[nH]c(=O)n2-c1ccccc1 (stereo unspecified) | 25.1 µM [rising, partial curve, poor fit] |  |
| COc1ccc2cc(CN(CC3CCCO3)C(=S)Nc3ccccc3)c(=O)[nH]c2c1 (stereo unspecified) | 10 µM [falling, partial curve, poor fit] | 11.2 µM [rising, single point] |
| Cc1ccc(CNc2ccc(N3C(=O)CCCC3=O)cc2[N+](=O)[O-])cc1 | 8.2 µM [rising, partial curve, poor fit] |  |
| Cc1ccc(C(=O)O/N=C(\N)c2cccc([N+](=O)[O-])c2)cc1 | 5.62 µM [falling, single point] |  |
| CCN1C(=O)c2cccc3c(S(=O)(=O)NCC4CCCO4)ccc1c23 (stereo unspecified) | 11.2 µM [rising, single point] |  |
| COc1ccccc1N1CCN(C2CCCN(C(=O)c3snnc3C)C2)CC1 (stereo unspecified) | 8.91 µM [rising, partial curve, poor fit] |  |
| CC(=O)NNC(=O)c1[nH]c2ccc(Br)cc2c1-c1ccccc1 | 35.5 µM [falling, single point] |  |
| COc1ccc(NC(=O)CCC(=O)OCc2ccc(Br)cc2)cc1 | 2.91 µM [rising, full curve] |  |
| CC(=O)Oc1ccc2c(=O)oc(-c3ccccc3C)nc2c1 | 12.6 µM [falling, partial curve, poor fit] |  |
| COc1cc(-c2noc(CCC(N)=O)n2)cc(OC)c1OC | 35.5 µM [rising, partial curve, poor fit] |  |
| N#Cc1c2c(c(-c3ccccc3)[nH]c1=O)CCCC2 | 31.6 µM [rising, single point] |  |
| COc1ccccc1/C=C/C=N/NC(=O)c1ccncc1 | 23.1 µM [falling, partial curve] |  |
| CS/C(N)=N/N=C/c1cc(Br)cc(Br)c1O |  | 2.24 µM [falling, partial curve, poor fit] |
| CC(C)c1ccc(C(=O)NCCCN(C)C)cc1 | 4.11 µM [rising, partial curve, poor fit] |  |

Later entries

| Structure (SMILES) | AC50 [1] | AC50 [2] |
| --- | --- | --- |
| O=C(NCC1CC1)c1onc(CSc2nc3ccccc3[nH]2)c1C(=O)NCC1CC1 | 3.16 µM [falling, single point] | 11.2 µM [rising, partial curve, poor fit] |
| Cc1ccc(C2(c3noc(CN(C)CC4CCCCO4)n3)CCCC2)cc1 (stereo unspecified) | 35.5 µM [rising, single point] |  |
| O=C(Cc1ccccc1)Nc1ccc(S(=O)(=O)N2CCCC2)cc1 | 6.31 µM [falling, partial curve, poor fit] |  |
| Cc1cc(C)nc(SCCn2c(N3CC(C)OC(C)C3)nc3c2c(=O)n(C)c(=O)n3C)n1 (stereo unspecified) | 3.16 µM [rising, single point] |  |
| C/C(=N\Nc1nc2ccccc2[nH]1)c1cc2ccccc2o1 | 1.46 µM [falling, full curve] |  |
| COc1ccc(C(=O)Nc2cc3c(cc2OC)CCCC3)cc1Br | 5.01 µM [rising, full curve, poor fit] |  |
| Cc1cc(NC(=O)c2cccc(S(=O)(=O)N3CCCCC3)c2)no1 | 11.2 µM [falling, partial curve, poor fit] |  |
| COc1ccc2[nH]c3c(NCCC4=CCCCC4)ncnc3c2c1 | 20 µM [falling, partial curve, poor fit] |  |
| CCc1ccc(NC(=O)c2ccc(NC3=NC4CS(=O)(=O)CC4S3)cc2)cc1 (stereo unspecified) | 8.91 µM [rising, partial curve] |  |
| COc1cccc(C2NC(=O)NC(C)=C2C(=O)Nc2ccc(C)cc2)c1 (stereo unspecified) | 2.59 µM [falling, partial curve, poor fit] |  |
| CC(C)OC(=O)/C(C#N)=C/c1cn(C)c2ccccc12 | 2.82 µM [rising, partial curve, poor fit] |  |
| CCSc1nnc(NC(=O)NC(CC)(C(F)(F)F)C(F)(F)F)s1 | 6.31 µM [rising, full curve] |  |
| Cc1c(C(=O)NCCSCc2ccco2)cccc1[N+](=O)[O-] | 0.146 µM [rising, full curve, poor fit] |  |
| CN(CCOc1ccc(Cl)cc1)CC(=O)Nc1ccc(OC(F)(F)F)cc1 | 35.5 µM [falling, single point] |  |
| COc1ccccc1N(CC(=O)N/N=C(\C)c1ccccc1O)S(=O)(=O)c1ccc(C)cc1 | 3.55 µM [falling, partial curve] |  |
| Cc1ccc(C(=O)n2cnc3ccccc32)cc1C | 0.1 µM [rising, full curve, poor fit] |  |
| COc1cc(C=NNC(=O)c2ccc(NS(=O)(=O)c3cccs3)cc2)cc(Br)c1O | 20.6 µM [falling, single point] |  |
| CCOC(=O)Nc1ccccc1N1C(=O)c2ccccc2C1=O | 0.794 µM [rising, full curve, poor fit] |  |
| O=C1c2ccccc2C(=O)N1C1CCCCC1 | 12.6 µM [rising, partial curve, poor fit] |  |
| CCOC(=O)Cn1c(-c2cccnc2)nc(-c2ccccc2)c1-c1ccccc1 | 0.562 µM [falling, full curve, poor fit] |  |
